# Experimental data: PMC11199504, “New hemisynthetic derivatives of sphaeropsidin phytotoxins triggering severe endoplasmic reticulum swelling in cancer cells” (Scientific Reports, 2024)
# Test system: 60 cancer cell line panel profile
# Test: COMPARE algorithm correlation with the NCI database
# Details: COMPARE at the GI50 level
smiles,measurement,value
CC1(C=CCCCc2ccc3ccc4cccc5ccc2c3c45)C=C2C(=O)C3(O)OC(=O)C4(CCCC(C)(C)C34)C2(O)CC1 (stereo not shown) [Compound 13],highest correlation coefficient with any database compound,0.39
